Measured values as given in the supplement of paper PMC11348887.
Counter-ions that a name gives are not always drawn. This is one part of the list. Most entries show no effect beyond the scatter of the controls.

Columns and labels:
Conditions in all cases: 5 µM; treatment: days 7-14 after plating, readout day 21
[1] = test system: hPSC-derived cortical neurons (WA09); assay: nucleus area z-score vs screen plate; higher = larger nuclei (more mature)
[2] = test system: hPSC-derived cortical neurons (WA09); assay: total neurite length per nucleus (MAP2) z-score; higher = more neurite growth
[3] = test system: hPSC-derived cortical neurons (WA09); assay: nucleus roundness z-score vs screen plate; higher = rounder nuclei (more mature)
[4] = test system: hPSC-derived cortical neurons (WA09); assay: KCl-induced FOS+/EGR-1+ double-positive nuclei fraction z-score (KCl minus unstimulated); higher = stronger activity-induced IEG response

Row | Structure (SMILES) | nucleus area z-score [1] | total neurite length per nucleus (z-score) [2] | nucleus roundness z-score [3] | KCl-induced FOS+/EGR-1+ double-positive nuclei fraction z-score [4]
1 | C=CC1=C(C(=O)O)N2C(=O)[C@@H](NC(=O)/C(=N\O)c3csc(N)n3)[C@H]2SC1 [Cefdinir] | 0.781 | -0.645 | -2.59 | -0.722
2 | CCCNC(C)C(=O)Nc1c(C)csc1C(=O)OC (configuration not stated) [Articaine HCl] | -0.163 | 0.0295 | -0.092 | -0.0258
3 | CN1CCN(c2ccc(OC(F)(F)F)c(Nc3ncc4c(n3)-c3c(c(C(N)=O)nn3CCO)CC4)c2)CC1 | 1.12 | 0.0883 | 0.299 | -0.316
4 | NNC(=O)c1ccncc1 [Isoniazid] | 1.14 | 0.256 | 0.0637 | 2.24
5 | CC(C)[C@H](CO)Nc1nc(Nc2cccc(Cl)c2)c2ncn(C(C)C)c2n1 [Purvalanol A] | -0.255 | 0.669 | -0.149 | 1.35
6 | COc1ccccc1-c1cc(Nc2cccc(CS(N)(=O)=O)c2)ncn1 | -0.382 | -0.21 | -0.184 | 0.379
7 | CN1CCN(CCCNc2ncc(Cl)c(-c3cc4c(C(=O)NC5CC5)cccc4s3)n2)CC1 | -0.457 | 0.575 | 0.501 | -0.482
8 | CC1CCc2cc(F)cc3c(=O)c(C(=O)O)cn1c23 (configuration not stated) [Flumequine] | 0.304 | 0.133 | 0.106 | 0.019
9 | CCOC(=O)c1ncn2c1CN(C)C(=O)c1cc(F)ccc1-2 [Flumazenil] | 0.0905 | 0.227 | 0.4 | 1.09
10 | Nc1ccccc1NC(=O)c1ccc(CNc2nccc(-c3cccnc3)n2)cc1 [Mocetinostat (MGCD0103)] | -16.1 | -6.23 | -6.31 | -0.392
11 | O=c1c(O)c(-c2ccc(O)cc2)oc2cc(O)cc(O)c12 [Kaempferol] | -0.0276 | 0.432 | -0.505 | 0.596
12 | Nc1ccn([C@H]2CC[C@@H](CO)O2)c(=O)n1 [Zalcitabine] | 0.636 | -0.5 | -0.443 | -0.83
13 | Cc1cccc(C)c1OCC(=O)N[C@@H](Cc1ccccc1)[C@@H](O)C[C@H](Cc1ccccc1)NC(=O)[C@H](C(C)C)N1CCCNC1=O [Lopinavir] | -0.982 | 0.0469 | 0.629 | -0.437
14 | COc1ccc(-c2cnc3c(-c4cccc5ncccc45)cnn3c2)cc1 | 0.452 | 2.74 | -0.284 | 0.495
15 | C[C@H]1O[C@@H](O[C@H]2[C@@H](O)C[C@H](O[C@H]3[C@@H](O)C[C@H](O[C@H]4CC[C@@]5(C)[C@H](CC[C@@H]6[C@@H]5C[C@@H](O)[C@]5(C)[C@@H](C7=CC(=O)OC7)CC[C@]65O)C4)O[C@@H]3C)O[C@@H]2C)C[C@H](O)[C@@H]1O [Digoxin] | -5.89 | -2.17 | -3.89 | -2.79
16 | C[C@](N)(Cc1ccc(O)c(O)c1)C(=O)O [Methyldopa] | -0.385 | -0.13 | -0.365 | 0.578
17 | CN(C)C/C=C/C(=O)Nc1cc2c(Nc3ccc(F)c(Cl)c3)ncnc2cc1O[C@H]1CCOC1 [Afatinib (BIBW2992) Dimaleate] | -14.5 | -5.56 | -4.42 | -1.43
18 | CC(=O)[C@]1(O)Cc2c(O)c3c(c(O)c2[C@@H](O[C@H]2C[C@H](N)[C@H](O)[C@H](C)O2)C1)C(=O)c1ccccc1C3=O [Idarubicin HCl] | -16.1 | -6.16 | -0.751 | -0.668
19 | CCOc1ccc(NC(=O)CC(C)O)cc1 (configuration not stated) [Bucetin] | 1.02 | 0.332 | -0.707 | 0.389
20 | Cc1cccc(Nc2cc(Cl)nc(SCC(=O)O)n2)c1C | 0.111 | 0.359 | 0.00576 | 1.55
21 | CCC(C)n1ncn(-c2ccc(N3CCN(c4ccc(OCC5COC(Cn6cncn6)(c6ccc(Cl)cc6Cl)O5)cc4)CC3)cc2)c1=O (configuration not stated) [Itraconazole] | 0.08 | 0.158 | 0.76 | 0.139
22 | CC(C)(C)c1ccc(C(=O)CCCN2CCC(OC(c3ccccc3)c3ccccc3)CC2)cc1 [Ebastine] | 1.49 | -2.91 | -7.06 | -0.0984
23 | CC(=O)NS(=O)(=O)c1ccc(N)cc1 [Sulfacetamide Sodium] | 1.45 | -0.095 | 0.316 | 0.726
24 | CCCCc1oc2ccc(NS(C)(=O)=O)cc2c1C(=O)c1ccc(OCCCN(CCCC)CCCC)cc1 [Dronedarone HCl] | -15.1 | -4.71 | -10.3 | -2.07
25 | CCO[C@@H]1OC(=O)C[C@@H]1NC(=O)[C@@H]1CCCN1C(=O)[C@@H](NC(=O)c1ccc(N)c(Cl)c1)C(C)(C)C | 2.31 | -2.05 | -1.23 | -0.726
26 | CC(=O)OCC(=O)[C@@]12N=C(C)O[C@@H]1C[C@H]1[C@@H]3CCC4=CC(=O)C=C[C@]4(C)[C@H]3[C@@H](O)C[C@@]12C [Deflazacort] | 0.2 | 1.82 | 0.875 | 1.04
27 | CC1CCc2c(N3CCC(O)CC3)c(F)cc3c(=O)c(C(=O)O)cn1c23 (configuration not stated) [Nadifloxacin] | 0.931 | -1.3 | -0.371 | -0.489
28 | Cn1c(N2CCCCS2(=O)=O)nc(C(=O)NCc2ccc(F)cc2)c(O)c1=O | -0.463 | 0.603 | 0.924 | 1.98

Two records picked at random from the list so far, as already listed:
Row | Structure (SMILES) | nucleus area z-score [1] | total neurite length per nucleus (z-score) [2] | nucleus roundness z-score [3] | KCl-induced FOS+/EGR-1+ double-positive nuclei fraction z-score [4]
27 | CC1CCc2c(N3CCC(O)CC3)c(F)cc3c(=O)c(C(=O)O)cn1c23 (configuration not stated) [Nadifloxacin] | 0.931 | -1.3 | -0.371 | -0.489
9 | CCOC(=O)c1ncn2c1CN(C)C(=O)c1cc(F)ccc1-2 [Flumazenil] | 0.0905 | 0.227 | 0.4 | 1.09
